Results reported in PubChem BioAssay AID2417 (National Center for Advancing Translational Sciences (NCATS), 2010).
The campaign covered roughly 140,000 compounds. About 4,300 (3.1%) were called active. Inconclusive means that the source gave no clear call. Such entries were picked first, then a sample of the others.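 Rule for the calls: active = readout at or below -70, meaning at least 70% loss of cells showing the perinucleolar compartment, a nuclear body marking cancer cells; inconclusive = readout between -30 and a set limit; inactive = the rest.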

assay: High Content Assay for Compounds that inhibit the Assembly of the Perinucleolar Compartment; settings: PC3M PTB-GFP, PNC prevalence imaging, 16 h; at 10 µM; hits give low values;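 note: plate controls were DMSO wells for no effect and camptothecin positive control wells for full effect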
How it was run: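 PC3M cells stably expressing PTB-GFP, 750–1000 cells/well, treated 16 h at 37 °C with compound (23 nl of library stock), in duplicate. After paraformaldehyde fixation and Hoechst stain, imaged at 20x; PNC prevalence scored by image analysis.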

Structure (SMILES)	activity change (PNC), negative = inhibition
COc1cccc(C2c3c(oc4ccccc4c3=O)C(=O)N2CCCN2CCOCC2)c1 (centres undefined)	inconclusive: -37.6%
CCOC(=O)N1CCN(c2c(N3CCN(c4ccccc4OC)CC3)c(=O)c2=O)CC1	inconclusive: -62.8%
COCCn1c(SCC(=O)N2CCCc3ccccc32)nc2cccnc21	inconclusive: -48.4%
CCOC(=O)CSC1=C(C#N)C(c2ccc(C)o2)CC(=O)N1 (centres undefined)	active: -84.6%
CO/N=C(/CNC(=O)c1ccc(F)cc1)c1ccc(Cl)cc1	inactive: 65.3%
CC1CCN(C(=S)c2ccc(-c3ccc(Cl)cc3Cl)o2)CC1	inconclusive: -53.4%
CCc1nc(N)c(C#N)c(-c2cccnc2)c1C	inconclusive: -31.2%
CCCCn1c(SCC(=O)Nc2nc(C)cs2)nnc1-c1cccnc1	inconclusive: -52.5%
COc1ccc2c(c1)Cc1sc(NC(=O)c3cccs3)nc1-2	inconclusive: -52%
Cc1cccc(-n2c(-c3ccncc3)n[nH]c2=S)c1	inactive: 9.14%
Cn1nnnc1SCC(=O)NCCCc1ccccc1	inconclusive: -46.5%
CCCC(=O)C1C(=O)CC(CC(C)SCC)CC1=O (centres undefined)	inactive: 8.68%
COc1ccccc1CNC(=O)CN(C)CC(=O)Nc1cccc(F)c1	inconclusive: -51.1%
O=C(CCCN1C(=O)CSc2ncccc21)N1CCN(c2cccc(C(F)(F)F)c2)CC1	inconclusive: -68.8%
COc1ccccc1OCCSc1nc(N)cc(N)n1	active: -100%
Cc1c(N(C)C(=O)c2ccccc2F)c(=O)n(-c2ccccc2)n1C	inconclusive: -30.2%
CCN(Cc1ccccc1)S(=O)(=O)c1nc2nc(C)c(C)c(C)n2n1	inactive: 18.3%
Cc1ccc(-n2c(C)cc3c2CC(C)(C)CC3=O)cc1C	active: -85.2%
CCOC(=O)CNC(=O)C1c2ccccc2C(=O)N(c2ccc(OC)cc2)C1c1ccc(OC)cc1 (centres undefined)	inactive: -28.1%
O=C1CC(c2cc(Br)ccc2F)c2cc3c(cc2N1)CCC3 (centres undefined)	active: -97.2%
Cn1c2c(c(=O)n(C)c1=O)C(NS(=O)(=O)c1ccc(Cl)cc1)(C(F)(F)F)C(=O)N2 (centres undefined)	inconclusive: -58.2%
O=C(Nc1ccccc1Cc1ccccc1)c1oc2ccccc2c1COc1ccccc1	inconclusive: -75.8%
CCc1nc(SCc2cc(Cl)ccc2OC)n[nH]1	inactive: 16.9%

Structure (SMILES)	activity change (PNC), negative = inhibition
CCOC(=O)C1CSC(CC(=O)Nc2ccc(Cl)cc2)C(=O)N1 (centres undefined)	inactive: 33.8%
Cc1ccc(S(=O)(=O)c2c(COC(=O)c3ccc(Cl)cc3)c(-c3ccccc3)nn2C)cc1	inactive: 23.9%
O=C1CCCc2c1nc(-c1ccccc1)n2O	inconclusive: -55.4%
Nc1cccnc1Sc1ccc(Cl)cc1	inconclusive: -31.1%
NC(=O)c1c(NC(=O)C2CCCO2)sc2c1CCCC2 (centres undefined)	inconclusive: -41.6%
O=C(CNC(=O)c1cccc(F)c1)N/N=C/c1cc(Br)ccc1OC(=O)/C=C/c1ccco1	active: -80.9%
CCOC(=O)c1sc(NC(=O)CSc2nnc(C)s2)c(C(=O)OCC)c1C	inconclusive: -31.1%
Cc1cc(C)cc(OCC(=O)N(Cc2cccs2)C2CCS(=O)(=O)C2)c1 (centres undefined)	inconclusive: -58.7%
CCOC(=O)C1=CN(c2cccc(F)c2)C=C(C(=O)OCC)C1c1cc(OC)c(O)c([N+](=O)[O-])c1	inconclusive: -46.9%
O=C(CCn1c(=O)oc2ccccc21)NCCCN1CCCC1=O	inconclusive: -51.5%
COc1ccc(Cc2nnc(-c3cccc(C)c3)o2)cc1OC	inactive: 20.4%
Cn1c(=O)nc2n(Cc3ccccc3)c3cccc(Cl)c3cc-2c1=O	inactive: -14.9%
Cc1ccc(S(=O)(=O)Nc2ccccc2-c2ccccc2NS(=O)(=O)c2ccc(C)cc2)cc1	inconclusive: -46.5%
CC(=O)c1ccc(Oc2ccc(C(C)=O)cc2)cc1	inactive: 137%
CCOC(=O)NC1(Nc2ccc(C)cc2)Oc2ccccc2O1	inconclusive: -33.6%
Cc1nc2c(Cl)cc(Cl)cc2[nH]1	inconclusive: -43.2%
Cc1ccc(NC(=O)Cn2nnc(C(=O)NCc3ccccc3)c2N)cc1C	inconclusive: -56.3%
COc1cccc(NC(=O)c2ccccc2-c2nc(-c3cccc(C)c3)no2)c1	active: -139%
CCOC(=O)N1CCN(C(=S)NC(C)(C)C)CC1	inconclusive: -76.2%
COc1ccc(S(=O)(=O)NCc2ccccc2Cl)cc1OC	inconclusive: -44%
O=C(Oc1cccc(N2C(=O)C3C4c5ccccc5C(c5ccccc54)C3C2=O)c1)c1ccco1 (centres undefined)	active: -97.3%
CSCCC(NC(=O)c1cc([N+](=O)[O-])ccc1Cl)C(=O)O (centres undefined)	active: -82%
O=C(CCCCCn1c(=O)[nH]c2ccsc2c1=O)NCc1ccc2c(c1)OCO2	inconclusive: -68.7%

Structure (SMILES)	activity change (PNC), negative = inhibition
Cc1ccc(/C=C2/NC(=O)N(Cc3ccc(Br)cc3)C2=O)o1	inactive: -24.9%
CCCCn1c2ccccc2c2nnc(SCC(=O)NC3=NN=C(c4ccccc4)CS3)nc21	inconclusive: -61.9%
O=C(NCc1ccccc1)[C@H]1C[C@@H]1[C@H](NP(=O)(c1ccccc1)c1ccccc1)c1ccccc1	inconclusive: -30.6%
CC(C)(C)C(=O)/C(=C\c1ccc([N+](=O)[O-])cc1)n1cncn1	inconclusive: -37.1%
O=C(NNS(=O)(=O)c1ccccc1)C1CCN(S(=O)(=O)c2ccccc2)CC1	inactive: 11.3%
COc1ccc(N(CCN2C(=O)c3ccccc3C2=O)C(=O)c2cccc([N+](=O)[O-])c2)cc1	inconclusive: -66.8%
CNc1oc(-c2ccccc2Cl)nc1P(=O)(c1ccccc1)c1ccccc1	inconclusive: -46.2%
CCN(CCO)Cc1csc2ccccc12	inconclusive: -42.1%
Cc1nnc(NC(=O)c2cccc(S(=O)(=O)N3CCc4ccccc43)c2)s1	inactive: 12.7%
Cc1nc2ccc(S(=O)(=O)NCC(=O)NCCN3CCCCC3C)cc2s1 (centres undefined)	inconclusive: -36.4%
CN1C(=O)/C(=C/c2cn(CC(=O)N3CCCCC3)c3ccccc23)c2ccccc21	inactive: 24.4%
CN(C)c1ccc(C(CNS(=O)(=O)c2ccc(F)cc2)c2c[nH]c3ccccc23)cc1 (centres undefined)	inconclusive: -60.6%
Clc1cccc(-c2ccc(/C=N/n3cnnc3)o2)c1Cl	active: -100%
COC(=O)c1nn(Cc2ccccc2)c(=O)c2ccccc12	inconclusive: -35.2%
Clc1ccccc1SCc1nc2ccccc2[nH]1	inconclusive: -74.3%
COc1ccc(-c2nsc(C(=O)N(c3ccc(F)cc3)C(C(=O)NC3CCCC3)c3ccc(OC)cc3)c2N)cc1 (centres undefined)	inconclusive: -40.6%
O=[N+]([O-])c1cccc(Cl)c1NCCNS(=O)(=O)c1ccccc1	inconclusive: -31.3%
COc1cccc(-n2c(C)nnc2SCC(=O)Nc2ccccc2N2CCOCC2)c1	inactive: -2.5%
O=C(c1ccc(N2CN(C(=O)c3ccco3)c3nc4ccccc4nc32)cc1)N1CCOCC1	inconclusive: -36%
Cc1ccc(S(=O)(=O)CCC(=O)O)cc1C	inactive: -27.4%
Cc1ccc(OCc2ccc(C(=O)O)o2)c([N+](=O)[O-])c1	inactive: -16.1%
COc1ccc(-c2cc(C(F)(F)F)n3nc(C(=O)Nc4cc(C)on4)cc3n2)cc1OC	inconclusive: -34%
CCOc1cc(Br)ccc1S(=O)(=O)N1CCC(C(N)=O)CC1	inconclusive: -67.3%

Some of these compounds in order of number of heavy atoms, ascending.
Structure (SMILES)	activity change (PNC), negative = inhibition
Cc1ccc(S(=O)(=O)CCC(=O)O)cc1C	inactive: -27.4%
Clc1ccccc1SCc1nc2ccccc2[nH]1	inconclusive: -74.3%
Clc1cccc(-c2ccc(/C=N/n3cnnc3)o2)c1Cl	active: -100%
CCOc1cc(Br)ccc1S(=O)(=O)N1CCC(C(N)=O)CC1	inconclusive: -67.3%
O=[N+]([O-])c1cccc(Cl)c1NCCNS(=O)(=O)c1ccccc1	inconclusive: -31.3%
Cc1nc2ccc(S(=O)(=O)NCC(=O)NCCN3CCCCC3C)cc2s1 (centres undefined)	inconclusive: -36.4%
CNc1oc(-c2ccccc2Cl)nc1P(=O)(c1ccccc1)c1ccccc1	inconclusive: -46.2%
CN1C(=O)/C(=C/c2cn(CC(=O)N3CCCCC3)c3ccccc23)c2ccccc21	inactive: 24.4%
COc1cccc(-n2c(C)nnc2SCC(=O)Nc2ccccc2N2CCOCC2)c1	inactive: -2.5%
COc1ccc(-c2cc(C(F)(F)F)n3nc(C(=O)Nc4cc(C)on4)cc3n2)cc1OC	inconclusive: -34%
COc1ccc(N(CCN2C(=O)c3ccccc3C2=O)C(=O)c2cccc([N+](=O)[O-])c2)cc1	inconclusive: -66.8%
O=C(c1ccc(N2CN(C(=O)c3ccco3)c3nc4ccccc4nc32)cc1)N1CCOCC1	inconclusive: -36%
O=C(NCc1ccccc1)[C@H]1C[C@@H]1[C@H](NP(=O)(c1ccccc1)c1ccccc1)c1ccccc1	inconclusive: -30.6%
COc1ccc(-c2nsc(C(=O)N(c3ccc(F)cc3)C(C(=O)NC3CCCC3)c3ccc(OC)cc3)c2N)cc1 (centres undefined)	inconclusive: -40.6%

Later entries:

Structure (SMILES)	activity change (PNC), negative = inhibition
O=C(COC(=O)/C=C/c1ccc(OC(F)F)cc1)NCc1cccs1	inactive: -14.7%
Cc1ccc(CNC(=O)CCS(=O)(=O)c2cc(Br)cc3c2N(C(=O)C2CC2)CC3)o1	inconclusive: -40.4%
N#Cc1ccc(OCC(=O)N/N=C2/CC(c3ccccc3)Oc3ccccc32)cc1 (centres undefined)	inconclusive: -37.3%
CN1CCN(CC(=O)n2c3c(c4ccccc42)CCCC3)CC1	inconclusive: -47.1%
O=C(CSCc1ccc(Cl)cc1)NCc1ccc2c(c1)OCO2	inactive: -10.5%
O=C(CSc1ncnc2c1nnn2-c1ccc(F)cc1)NCC1CCCO1 (centres undefined)	inactive: -15.8%
CCOC(=O)CCSc1nnc(-c2cccnc2)n1-c1ccccc1OC	inconclusive: -35.9%
COc1ccc(Nc2ncc(C(=O)N3CCN(c4ccc(F)cc4)CC3)c3ccccc23)cc1	inconclusive: -36.7%
CN(C)CCNC(=O)/C(=C/c1cccc([N+](=O)[O-])c1)NC(=O)c1ccccc1	inactive: -1.37%
O=C(CNC(=O)c1cccc(OC(F)F)c1)OCc1cc(=O)n2cc(Br)ccc2n1	inactive: -20.2%
CSc1nc(Oc2ccc(=O)n(C)n2)nc(N(C)C)n1	inconclusive: -33.9%
Cc1ccc(CNC(=O)C2=CCN(S(=O)(=O)c3ccc(C)cc3)CC2)cc1	inconclusive: -50.1%
COc1ccc(S(=O)(=O)NC(C)C(=O)Nc2ccccc2F)cc1 (centres undefined)	inconclusive: -34.1%
O=C1c2ccccc2C(=O)N1SC1CCCCC1	inactive: 50.6%
Cc1cc(S(=O)(=O)NCC(C)C)ccc1OCC(=O)NCc1ccccn1	inconclusive: -46%
Cc1ccccc1C(=O)NC1CCN(CC(=O)Nc2nccs2)CC1	inconclusive: -41.6%
Cc1ccc(/C=C/C(=O)NC(=S)N2CCN(C)CC2)cc1	inconclusive: -67%
O=C(Nc1nccs1)c1cnccn1	active: -100%
Cc1ccc(S(=O)(=O)N2CCC(C(=O)Nc3ccc4c(c3)OCO4)CC2)cc1	inconclusive: -40.3%
O=C(COc1ccc(C(=O)c2ccccc2)cc1)NCC(=O)Nc1ccccc1Br	inconclusive: -34.5%
